{"source": "paper PMC7158045", "about": "(BMC Plant Biology, 2020)", "assay_in_all_cases": "biochemical", "key": {"[1]": {"biological_target": "T1, ZmDRIK1 (DROUGHT RESPONSIVE INACTIVE KINASE 1), kinase domain (Zea mays, UniProt C0P4K9)", "T1 construct": "gene ZEAMMB73_Zm00001d028770; ZmDRIK1-KD R187-S514 (kinase domain)", "T1 sequence (C0P4K9 187-514)": "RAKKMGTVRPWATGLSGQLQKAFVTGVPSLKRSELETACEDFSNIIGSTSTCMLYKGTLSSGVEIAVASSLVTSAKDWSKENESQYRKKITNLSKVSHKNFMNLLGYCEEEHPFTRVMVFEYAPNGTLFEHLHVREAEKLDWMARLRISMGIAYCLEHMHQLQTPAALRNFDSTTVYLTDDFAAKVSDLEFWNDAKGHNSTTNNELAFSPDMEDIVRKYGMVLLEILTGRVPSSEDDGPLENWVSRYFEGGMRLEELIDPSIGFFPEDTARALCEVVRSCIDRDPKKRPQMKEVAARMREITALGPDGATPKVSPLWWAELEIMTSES", "settings": "read-out: dTm B, sheet ZmDRIK1-R187-S514;; DSF, Boltzmann fit, 0.1% DMSO"}, "ZmDRIK1-K217-S514": {"biological_target": "T2, ZmDRIK1-K217-S514 (Zea mays, UniProt C0P4K9)", "T2 construct": "kinase domain, K217-S514", "T2 sequence (C0P4K9 1-514)": "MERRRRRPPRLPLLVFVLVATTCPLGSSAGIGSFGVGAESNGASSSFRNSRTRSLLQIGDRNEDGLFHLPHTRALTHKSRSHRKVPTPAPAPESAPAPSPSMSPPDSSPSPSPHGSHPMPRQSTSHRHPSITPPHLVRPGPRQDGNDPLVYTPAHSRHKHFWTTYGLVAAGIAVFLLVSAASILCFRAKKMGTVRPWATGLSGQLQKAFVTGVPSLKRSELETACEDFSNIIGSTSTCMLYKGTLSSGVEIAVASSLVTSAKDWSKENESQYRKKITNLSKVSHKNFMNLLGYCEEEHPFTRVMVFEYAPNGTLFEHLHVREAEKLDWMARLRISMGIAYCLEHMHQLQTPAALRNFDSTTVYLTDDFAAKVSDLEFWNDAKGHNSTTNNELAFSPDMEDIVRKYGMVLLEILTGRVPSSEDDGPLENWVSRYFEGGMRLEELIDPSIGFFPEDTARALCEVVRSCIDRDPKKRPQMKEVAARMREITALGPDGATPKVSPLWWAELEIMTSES", "settings": "read-out: dTm B, sheet ZmDRIK1-K217-S514;; DSF, Boltzmann fit, 0.1% DMSO"}, "ZmDRIK1-K217-P492": {"biological_target": "T3, ZmDRIK1-K217-P492 (Zea mays, UniProt C0P4K9)", "T3 construct": "kinase domain, K217-P492", "T3 sequence (C0P4K9 1-514)": "T2 sequence (C0P4K9 1-514)", "settings": "read-out: dTm B, sheet ZmDRIK1-K217-P492;; DSF, Boltzmann fit, 0.1% DMSO"}, "ZmDRIK1-R187-P492": {"biological_target": "T4, ZmDRIK1-R187-P492 (Zea mays, UniProt C0P4K9)", "T4 construct": "kinase domain, R187-P492", "T4 sequence (C0P4K9 1-514)": "T2 sequence (C0P4K9 1-514)", "settings": "read-out: dTm B, DSF, Boltzmann fit, 0.1% DMSO"}}, "data": [{"smiles": "Nc1ccc(C(=O)Nc2cccc(-c3nc(N4CCOCC4)c4oc5ncccc5c4n3)c2)cn1", "note": "[YM201636]", "values": [{"measurement": "ΔTm at 10 µM", "setting": "[1]", "value": -0.543, "unit": "°C"}, {"measurement": "ΔTm at 10 µM", "setting": "ZmDRIK1-K217-S514", "value": -0.275, "unit": "°C"}, {"measurement": "ΔTm at 10 µM", "setting": "ZmDRIK1-K217-P492", "value": -1.07, "unit": "°C"}, {"measurement": "ΔTm at 10 µM", "setting": "ZmDRIK1-R187-P492", "value": -0.352, "unit": "°C"}]}, {"smiles": "Nc1nc(N)c2nc(-c3cccc(O)c3)cnc2n1", "note": "[TG100713]", "values": [{"measurement": "ΔTm at 10 µM", "setting": "[1]", "value": -0.479, "unit": "°C"}, {"measurement": "ΔTm at 10 µM", "setting": "ZmDRIK1-K217-S514", "value": -0.195, "unit": "°C"}, {"measurement": "ΔTm at 10 µM", "setting": "ZmDRIK1-K217-P492", "value": -1.25, "unit": "°C"}, {"measurement": "ΔTm at 10 µM", "setting": "ZmDRIK1-R187-P492", "value": -0.282, "unit": "°C"}]}]}
